Measurements as given in patent US6403602B1 (priority 1997, dated 2002).
Some of these results come from one statement about several compounds together.

Tested on: nociception (tail-flick)
Assay: Tail-flick test after intracerebroventricular administration
Assay type: in vivo
Conditions: rat tail-flick, icv

CN1CC[C@]23c4c5ccc(O)c4O[C@H]2[C@@H](OS(=O)(=O)O)C=C[C@H]3[C@H]1C5 [NIDA # 20,266, Morphine-6-O-Sulfate]
time to maximal analgesic effect (molar dose equivalent to the lower dose of morphine): ≤ 10 min

CN1CC[C@]23c4c5ccc(O)c4O[C@H]2[C@@H](O)C=C[C@H]3[C@H]1C5 [Morphine, morphine]
time to maximal analgesia (higher dose 23.6 μg/4 μl/rat): ≤ 10 min
